# Reference: PubChem BioAssay AID743121 (NCATS, 2013)
# Test: 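Partners whose loss is lethal together with topoisomerase I blockade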 (primary screen)
# Cell system: MDA-MB-231 cells, a human breast cancer line
# Reagent: single siRNA against human genes, 20 nM siRNA (0.8 pmol per well)
# Duration: 120 h (drug added 48 h after transfection, read 72 h later)
# Challenge: camptothecin 20 nM (about EC30) for 72 h; vehicle 0.1% DMSO in parallel plates
# Read-out: 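CellTiter-Glo ATP signal, scaled to control siRNA as percent viability; sensitisation given as log2 of untreated divided by camptothecin-treated viability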
# Reading the numbers: log2 vehicle/camptothecin viability: higher = stronger sensitisation to camptothecin; viability with camptothecin and viability without drug: higher = more viable cells
# Rule for the call: 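Active genes have an RSA gene-level p-value below 0.001, computed from the ratios of their separate siRNAs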
# Shown is one part, drawn at random, of about 26,000 reagents tested. Over the whole deposit, 167 (0.63%) are marked active. 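Calls are per gene from RSA p-values that are not deposited; an individual active-marked siRNA can sensitise only weakly.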 A number with no mark means an inactive call. Reagents against one gene are numbered here.
gene symbol,reagent no.,log2 vehicle/camptothecin viability,viability with camptothecin (% of control),viability without drug (% of control)
SIRT6 (sirtuin 6),1,0.297,49.8,61.2
SIRT6 (sirtuin 6),2,-0.125,94.1,86.3
SIRT6 (sirtuin 6),3,0.276,59.3,71.8
SIRT6 (sirtuin 6),4,-0.532,81.9,56.7
PLK3 (polo like kinase 3),1,-0.0357,42.7,41.6
PLK3 (polo like kinase 3),2,0.013,96.2,97.1
PLK3 (polo like kinase 3),3,-0.298,52.7,42.8
PLK3 (polo like kinase 3),4,-0.473,78.6,56.6
TUBA4A (tubulin alpha 4a),1,0.147,56.1,62.2
TUBA4A (tubulin alpha 4a),2,-0.931,92.2,48.3
TUBA4A (tubulin alpha 4a),3,-0.45,70.3,51.5
TUBA4A (tubulin alpha 4a),4,0.173,54.8,61.7
TICAM2 (TIR domain containing adaptor molecule 2),1,-0.563,33.2,22.4
TICAM2 (TIR domain containing adaptor molecule 2),2,0.298,37.3,45.9
TICAM2 (TIR domain containing adaptor molecule 2),3,-0.0725,30.3,28.8
TICAM2 (TIR domain containing adaptor molecule 2),4,-0.407,84.3,63.6
PTPRG (protein tyrosine phosphatase receptor type G),1,-0.18,117,103
PTPRG (protein tyrosine phosphatase receptor type G),2,-0.0139,105,104
PTPRG (protein tyrosine phosphatase receptor type G),3,-0.275,109,90.1
PTPRG (protein tyrosine phosphatase receptor type G),4,-0.325,84.9,67.8
ATN1 (atrophin 1),1,-0.118,57.6,53.1
ATN1 (atrophin 1),2,0.148,88.6,98.2
ATN1 (atrophin 1),3,-0.298,33.7,27.4
TXNL4B (thioredoxin like 4B),1,-0.129,122,111
TXNL4B (thioredoxin like 4B),2,-0.365,41.3,32.1
TXNL4B (thioredoxin like 4B),3,0.104,92.8,99.7
TXNL4B (thioredoxin like 4B),4,-0.36,64.9,50.6
PTH1R (parathyroid hormone 1 receptor),1,-0.207,104,90.1
PTH1R (parathyroid hormone 1 receptor),2,-0.183,84.8,74.8
PTH1R (parathyroid hormone 1 receptor),3,-0.379,75.3,57.9
PTH1R (parathyroid hormone 1 receptor),4,-0.129,37.1,34

Part of the list above, reduced to “viability with camptothecin (% of control)”:
TUBA4A (tubulin alpha 4a) #2	92.2
TUBA4A (tubulin alpha 4a) #3	70.3
TUBA4A (tubulin alpha 4a) #4	54.8
